Data published in patent US10335417B2, “Thiazideamide derivative and use thereof” (Institute of Pharmacology and Toxicology Academy of …, priority 2015, dated 2019).
Some results were stated once for a whole list of compounds, not compound by compound.

System: chick embryo dorsal root ganglion
Experiment: in vitro serum-free culture model of chick embryonic dorsal root ganglion: neurite growth score with NGF
Assay type: cell-based
Method: The neurotrophic activity of the compounds according to the invention can be embodied in multiple in vitro biological models, such as in vitro serum-free culture model of chick embryonic dorsal root ganglion.
Experimental method: in a sterile environment, chick embryo, which had been incubated for 8 d, had the spinal and bilateral ganglion exposed under anatomical lens. Dorsal root ganglions were picked one by one using sharp forceps, and seeded in culture bottles spread with rat tail collagen, at a density of 5-6 ganglions per bottle, and two bottles for each dose. After attachment culture in a 37° C., 5% CO2 incubator for 1 h, serum-free medium DMEM containing nerve growth factor (NGF) (0.15 ng/mL), and the compound according to the invention were added. In the control group, only the medium and the same dose of NGF were added. After culture in the incubator for 48 h, the growth of neurite around dorsal root ganglion was observed under inverted phase contrast microscope, which was scored depending on the length and density of neurite.
Evaluation criteria: 0: no neurite; 1: rare long neurite; 2: relatively long or dense neurite; 3: long and dense neurite.

Row | SMILES | neurotrophic activity increased compared to Compound 6 (dose 1 pM) | neurotrophic activity increased compared to Compound 6 (dose 100 pM)
1 | Cc1ccc(S(=O)(=O)N2CCSC[C@H]2C(=O)N[C@H](CCc2ccccc2)C(=O)OC(C)C)cc1 [Compound 26, (R)-isopropyl-4-phenyl-2((R)-(4-methylphenyl)sulfonyltetrahydro-1,4-thiazin-3-aminoformyl)butyrate] | 4.8-12.5% | 5.1-9.8%
2 | Cc1ccc(S(=O)(=O)N2CCSC[C@H]2C(=O)N[C@@H](CCc2ccccc2)C(=O)OC(C)C)cc1 [Compound 25, (S)-isopropyl-4-phenyl-2((R)-(4-methylphenyl)sulfonyltetrahydro-1,4-thiazin-3-aminoformyl)butyrate] | 4.8-12.5% | 5.1-9.8%
3 | Cc1ccc(S(=O)(=O)N2CCSC[C@H]2C(=O)N[C@H](Cc2ccccc2)C(=O)OC(C)C)cc1 [Compound 24, (R)-isopropyl-3-phenyl-2((R)-(4-methylphenyl)sulfonyltetrahydro-1,4-thiazin-3-aminoformyl)propionate] | 4.8-12.5% | 5.1-9.8%
